The source of these data is publication PMC10353047, “Guianensin, a Simulium guianense salivary protein, has broad anti-hemostatic and anti-inflammatory properties” (Frontiers in Immunology, 2023).

These are yes or no findings as the source states them, for the method shown. Some binding calls cover weakened binding; strength is not graded here.

In test [1] the target is T1, Guianensin (Simulium guianense) (UniProt F5GTK6).
T1 sequence: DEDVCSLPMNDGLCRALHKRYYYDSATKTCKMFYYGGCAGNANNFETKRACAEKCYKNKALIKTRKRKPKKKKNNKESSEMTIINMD
The test can be described thus: SPR; Biacore T200; Guianensin immobilised at 1250 RU on a CM5 chip by amine coupling; binding analysis with all analytes at a single concentration of 100 nM; both purified. A general note: Surface plasmon resonance follows binding to a sensor surface in real time, without labels.

Test [2] addresses T1, Guianensin (Simulium guianense). The experiment in a line: SEC; Superdex200 10/30 column; purified recombinant Guianensin runs as a single peak at the expected mass; both purified. In general terms: Size exclusion chromatography separates by hydrodynamic size, large species first.

B1: human factor XIIa (enzyme, UniProt P00748 20-372; P00748 373-615)
chain 1: IPPWEAPKEHKYKAEEHTVVLTVTGEPCHFPFQYHRQLYHKCTHKGRPGPQPWCATTPNFDQDQRWGYCLEPKKVKDHCSKHSPCQKGGTCVNMPSGPHCLCPQHLTGNHCQKEKCFEPQLLRFFHKNEIWYRTEQAAVARCQCKGPDAHCQRLASQACRTNPCLHGGRCLEVEGHRLCHCPVGYTGAFCDVDTKASCYDGRGLSYRGLARTTLSGAPCQPWASEATYRNVTAEQARNWGLGGHAFCRNPDNDIRPWCFVLNRDRLSWEYCDLAQCQTPTQAAPPTPVSPRLHVPLMPAQPAPPKPQPTTRTPPQSQTPGALPAKREQPPSLTRNGPLSCGQRLRKSLSSMTR
chain 2: VVGGLVALRGAHPYIAALYWGHSFCAGSLIAPCWVLTAAHCLQDRPAPEDLTVVLGQERRNHSCEPCQTLAVRSYRLHEAFSPVSYQHDLALLRLQEDADGSCALLSPYVQPVCLPSGAARPSETTLCQVAGWGHQFEGAEEYASFLQEAQVPFLSLERCSAPDVHGSSILPGMLCAGFLEGGTDACQGDSGGPLVCEDQAAERRLTLQGIISWGSGCGDRNKPGVYTDVAYYLAWIREHTVS
On to B1, for which the binding result in test [1] is reported as “binds”.

B2: Guianensin (natural protein)
chain: DEDVCSLPMNDGLCRALHKRYYYDSATKTCKMFYYGGCAGNANNFETKRACAEKCYKNKALIKTRKRKPKKKKNNKESSEMTIINMD
notes: precursor of 106 amino acids, predicted signal peptide of 19 amino acids removed; numbers count on: the mature protein; Synthetic gene for the mature peptide, with a 6x-His tag before the stop codon; Monomeric by SEC; also called recombinant Guianensin; mature Guianensin
In the case of B2, the binding entry in test [2] is listed as “no binding”.
